In patent publication US12552763B2, “Methods of protecting against neurodegeneration” (BioVentures, LLC, priority 2017, dated 2026):
Some results were stated once for a whole list of compounds, not compound by compound.

System: C. elegans strain AM141 (Q40::YFP aggregates)
Assay: Q40::YFP aggregate foci in C. elegans strain AM141 (Huntington-like polyglutamine aggregation model)
Assay type: in vivo
Details: strain AM141, Q40::YFP in muscle; FIG. 3
From the text: C. elegans (AM141) adults were imaged at 7 days of adult age and quantified for intensity (FIG. 2A) and number (FIG. 2B) of Q40::YFP aggregates after 0, 1, 3, or 6 d of exposure to 50-nM PNR-5-02. Treated worms differ from untreated worms (“Days Tx”=0) by 2-tailed t test: *P<0.01; **P<1E-4.
FIG. 3 depicts a graph showing reduction of protein aggregation in a C. elegans model of Huntington's disease or other neurodegenerative diseases featuring aggregates that contain polyglutamine tracts. Strain AM141, which expresses Q40::YFP in muscle, undergoes age-progressive accumulation of aggregate foci. PNR-5-02 analogues confer at least 30% reduction in formation of aggregate foci (****=P<0.00005 and *=P<0.01). PNR-5-18, PNR-4-44, PNR-5-58, and PNR-4-76 reduced aggregate count by ˜20%. PNR-5-02, PNR-4-87, PNR-5-56, and PNR-5-57 reduced aggregates ≥30%. […]

## COc1cc(/C(C#N)=C\c2cc3ccccc3s2)cc(OC)c1OC [PNR-5-02]
  reduction of aggregate count (aggregate foci): at least 30%
